Values quoted from earlier work, collected in US6479045B2, “Vaginal pH buffering for preventing miscarriage and premature labor, by treating or preventing bacterial vaginosis” (Columbia Laboratories, Inc., priority 1999, dated 2002).
At least one compound was matched to its structure with a doubt left.

System: Bacterial Vaginosis
Conditions: within one month

Structure (SMILES): CCC[C@@H]1C[C@@H](C(=O)N[C@@H]([C@H]2O[C@H](SC)[C@H](O)[C@@H](O)[C@H]2O)[C@H](C)Cl)N(C)C1 [clindamycin]
- cure rate: approximately 70%
